Reference: publication PMC7819943, “Rice protein-binding microarrays: a tool to detect cis-acting elements near promoter regions in rice”
This is one part of the list.

Sequences of proteins named here, by UniProt entry; tags and fusion partners are left off.
UniProt Q0JBA9, entry or part of it: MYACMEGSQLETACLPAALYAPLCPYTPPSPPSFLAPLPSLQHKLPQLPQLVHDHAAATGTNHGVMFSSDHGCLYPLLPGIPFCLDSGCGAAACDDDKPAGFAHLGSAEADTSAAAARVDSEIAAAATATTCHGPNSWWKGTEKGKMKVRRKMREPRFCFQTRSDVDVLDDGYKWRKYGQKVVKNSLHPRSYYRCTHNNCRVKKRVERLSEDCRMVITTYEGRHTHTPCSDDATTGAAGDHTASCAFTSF

Biological target: OsWRKY34 (Oryza sativa, UniProt Q0JBA9 1-250)
Experiment: protein-binding microarray (RPBM); PBS, 2% BSA, 51.3 ng/ul salmon testes DNA, 50 uM zinc acetate, 200 nM TF, 25 C, 1 h; high values mean tight binding
Details: protein: recombinant; tags: N-terminal polyhistidine and DsRed monomer fusion (pET32a); label: CyDye5-dUTP incorporated in the synthesized complementary strand; 3' TTTTT single-stranded linker to array surface; dsDNA, one strand shown
Outline: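 Transcription factors were made in E. coli BL21-CodonPlus as N-terminal fusions to a polyhistidine tag and DsRed, then purified on Ni–NTA. After primer extension with Cy5-dUTP and blocking with 2% BSA, a custom Agilent array was exposed for 1 h at 25 °C to 200 nM protein in PBS, 2% BSA, salmon testes DNA and 50 µM zinc acetate. Washed arrays were scanned on an Axon 4000B, and the binding signal is per-feature fluorescence intensity in arbitrary units.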

Sequence | binding signal
AACATACAGATTACCTGCTTTCTTCATTTCCGTGTTCAGCCGGAGTCACCTAGTGCAG | 9210 fluorescence intensity (a.u.)
CTCTCATCTGCATCAGTATTCTTTTTATCAGATTTGCAGACGGAGTCACCTAGTGCAG | 8370 fluorescence intensity (a.u.)
CTTGTTTGACTGACATATGGGTTCTGCATGTTTTGTTTTACGGAGTCACCTAGTGCAG | 8330 fluorescence intensity (a.u.)
TCTTCCCGCCTTTTTTTTCTTTGTTATTTTTCTTTTTTTTCGGAGTCACCTAGTGCAG | 18000 fluorescence intensity (a.u.)
ATGCTCCACTGATCGTCTTCTACTTACTCCTCTTTCTTCCCGGAGTCACCTAGTGCAG | 11900 fluorescence intensity (a.u.)
CAAGCCCACAAATCAGCTTTAAATACCCTTTGATTTTTTCCGGAGTCACCTAGTGCAG | 8220 fluorescence intensity (a.u.)
ACCGAACACCCACGCCAGCCGCCGCGCGCTGCCGCCCCATCGGAGTCACCTAGTGCAG | 12500 fluorescence intensity (a.u.)
CGTCTCCGCCGCCTTCCACGCCGCCCACGTCGCGCCGCACCGGAGTCACCTAGTGCAG | 8710 fluorescence intensity (a.u.)
TGCCTTCCTGCCTTCAAACTCGATCTCTCCTGTCTAATTTCGGAGTCACCTAGTGCAG | 9520 fluorescence intensity (a.u.)
AGCCGATCATTGTCATCTTATTGCCCTGCTTATTTCCAATCGGAGTCACCTAGTGCAG | 9050 fluorescence intensity (a.u.)
GATGGTGTTACTATTCTTGCATGTTTACCTTCCCTTGTTCCGGAGTCACCTAGTGCAG | 14800 fluorescence intensity (a.u.)
GTTAGAGACTAAATCAATACTTCATTCGTCCCATGATATTCGGAGTCACCTAGTGCAG | 8060 fluorescence intensity (a.u.)
CTCCACCTCGCCGCGGCCGGGCGCGTACGCCGCCATGCTCCGGAGTCACCTAGTGCAG | 8680 fluorescence intensity (a.u.)
ACATGGTAGAACGACTCATCTTGGATGCTTCTTGACTCACCGGAGTCACCTAGTGCAG | 8480 fluorescence intensity (a.u.)
CAACCGCACTACTACTGTTTAGGCCCAAGGTCAACGTTGTCGGAGTCACCTAGTGCAG | 9770 fluorescence intensity (a.u.)
TCCTCTTAACTATAACTTATATTCAATTTATGTCTCTCGACGGAGTCACCTAGTGCAG | 8140 fluorescence intensity (a.u.)
CTCCCTCAATCTCTCTCTCTCTCTGCATAGATGCTGCTACCGGAGTCACCTAGTGCAG | 10400 fluorescence intensity (a.u.)
CTTAGCTCGCTTTTATCTTTTCCGCTGCATTTGTAATCTTCGGAGTCACCTAGTGCAG | 9020 fluorescence intensity (a.u.)
CTAGCCATACACTCCCTTTTTCTTTTCTGATATAGGGTTACGGAGTCACCTAGTGCAG | 9920 fluorescence intensity (a.u.)
GCTAATTAATATGTTTTCACAAGTATTCTCTAACAAAGACCGGAGTCACCTAGTGCAG | 8090 fluorescence intensity (a.u.)
ATCTAGGCACGAAGATTTTGCATTTTGTCACGGCTTTATACGGAGTCACCTAGTGCAG | 8450 fluorescence intensity (a.u.)

In a second layout: results already given
Sequence	binding signal
CTAGCCATACACTCCCTTTTTCTTTTCTGATATAGGGTTACGGAGTCACCTAGTGCAG	9920 fluorescence intensity (a.u.)
GCTAATTAATATGTTTTCACAAGTATTCTCTAACAAAGACCGGAGTCACCTAGTGCAG	8090 fluorescence intensity (a.u.)
ATCTAGGCACGAAGATTTTGCATTTTGTCACGGCTTTATACGGAGTCACCTAGTGCAG	8450 fluorescence intensity (a.u.)

Next entries.

Sequence | binding signal
TTCATATCTGCTTTTTCCTATATATGTGTGTGTGACTGCACGGAGTCACCTAGTGCAG | 9710 fluorescence intensity (a.u.)
GCTGCCGCCGCCGCCGCCCCAGCCAACCCTATCCCGGCCCCGGAGTCACCTAGTGCAG | 9470 fluorescence intensity (a.u.)
TAGTGGTAGTCTTGTGTTAGGGTTGTTGATTGCGCACGGACGGAGTCACCTAGTGCAG | 10200 fluorescence intensity (a.u.)
TTGGCCTCCACGACTACCACACCATCATCACCAAGCCCATCGGAGTCACCTAGTGCAG | 9080 fluorescence intensity (a.u.)
TGTCACCATCTTATCGCATCCCCAAGTTGCTAGTTGCTACCGGAGTCACCTAGTGCAG | 8080 fluorescence intensity (a.u.)
ATTTGAAGGGGTATTTTGGTCATTCTTCTAGAAACTTTCTCGGAGTCACCTAGTGCAG | 9710 fluorescence intensity (a.u.)
TGTGGTTCTATTGCTTTCGTGCGTTTGGTGATCCATGCTACGGAGTCACCTAGTGCAG | 11100 fluorescence intensity (a.u.)
TTGCGCCCGGCCACCACCGCCTGCCGCCTTGCTGCCAGCCCGGAGTCACCTAGTGCAG | 9640 fluorescence intensity (a.u.)
CTTTCTCCTTTCTCTCCACTTTTTACGGATCTGGTGCTCCCGGAGTCACCTAGTGCAG | 8270 fluorescence intensity (a.u.)
GACATTTTGACCTTGAGCTCTAGTCTCAACACCGTTAACTCGGAGTCACCTAGTGCAG | 8890 fluorescence intensity (a.u.)
GGGCTGCATATTTGAGGGGAGGGCGTGAGGCGGCTGTTTGCGGAGTCACCTAGTGCAG | 12200 fluorescence intensity (a.u.)
TATAGCTGGTTCTTGCATGTACTTACCTCATACTATTTGACGGAGTCACCTAGTGCAG | 11700 fluorescence intensity (a.u.)
TCCTCCTCCGATTGGGTTGGGGATTTCTGCTTCTGTTCGACGGAGTCACCTAGTGCAG | 10900 fluorescence intensity (a.u.)
GCGGGCAGTGGGCGCGAGATCTCATCCGAGTGGGTGGGCGCGGAGTCACCTAGTGCAG | 8060 fluorescence intensity (a.u.)
AAAGCCACTCTTCTCCTTTGAACATTCTTCTCCTTTTCTTCGGAGTCACCTAGTGCAG | 8880 fluorescence intensity (a.u.)
TCTCGCTCCCTCCATTCCGACGTCTCATTCTCTCTCCACACGGAGTCACCTAGTGCAG | 10500 fluorescence intensity (a.u.)
GAGAATACTTTTATTCTTTTACTCTTAGCCGTTTAATTGCCGGAGTCACCTAGTGCAG | 8030 fluorescence intensity (a.u.)
TCCCGCTCACCACCACGCCACGTCACCGATCCGCGCAACCCGGAGTCACCTAGTGCAG | 9510 fluorescence intensity (a.u.)
GTGTCTGAATTCTCGTCCACCTTTTGCAACAGGCAAGTATCGGAGTCACCTAGTGCAG | 8180 fluorescence intensity (a.u.)
GTCTCAATCACCACGTGCTCTTCCATCCTCCATAAATACTCGGAGTCACCTAGTGCAG | 8320 fluorescence intensity (a.u.)
AATTTAATGCATGACCTTCTATTCTTCCACACGAGATTGACGGAGTCACCTAGTGCAG | 8280 fluorescence intensity (a.u.)

Sequence | binding signal
TTCTTCCTCACGCCTCTGAATTCAGTTGGATCTCCGGCAACGGAGTCACCTAGTGCAG | 9550 fluorescence intensity (a.u.)
AACCCTAACCCGCGCGCTCGCCTCCTCCTCCTCAGCCATGCGGAGTCACCTAGTGCAG | 8490 fluorescence intensity (a.u.)
CATTTTGCCGCCATTGACCTCGCCGTCGCCATGAACATCTCGGAGTCACCTAGTGCAG | 8490 fluorescence intensity (a.u.)
TACTTCGCATTCAGTTTCAGTTTCAGAGAAGAGACAGCTTCGGAGTCACCTAGTGCAG | 8500 fluorescence intensity (a.u.)
CGCTCCATCCAACTCATCACACACACGACACAGCACACCGCGGAGTCACCTAGTGCAG | 8250 fluorescence intensity (a.u.)
TGTCTGGTTTGACTTGGTCCTCATCCCACTGGACATTGACCGGAGTCACCTAGTGCAG | 10000 fluorescence intensity (a.u.)
CTTCCTAAAGTCTTGTTTTTCGTCTTCAAGTCATCGTTATCGGAGTCACCTAGTGCAG | 10200 fluorescence intensity (a.u.)
ATTACGCCAATATGCGTGCCTCCTCTTCGCGTTCTCTCTCCGGAGTCACCTAGTGCAG | 8360 fluorescence intensity (a.u.)
GCTAATCGCTACTCCGTTTTCCGTGCGGGCACTTAGTGTTCGGAGTCACCTAGTGCAG | 8120 fluorescence intensity (a.u.)
CTTTTTATTCATTCATGCTCTCTACTTTTAACAATTAACACGGAGTCACCTAGTGCAG | 9320 fluorescence intensity (a.u.)
TTTTTACAAGCAACATCCCGACCTGGACGCACATAGCTACCGGAGTCACCTAGTGCAG | 8560 fluorescence intensity (a.u.)
TGGAGGGAGTAATTAACTGTTGTTTGTTTGTCAGCTTCTACGGAGTCACCTAGTGCAG | 8910 fluorescence intensity (a.u.)
CTCTCTCTCTCTCTCTCTCTTCTTTCTCTCTCTTGCTGCCCGGAGTCACCTAGTGCAG | 9280 fluorescence intensity (a.u.)
TTCTTTTGGCATGGTGATGACATGTTTGTTGCTGCTGACGCGGAGTCACCTAGTGCAG | 9490 fluorescence intensity (a.u.)
AAACACTGATTTTCGTGTCTAATGTTTGACCGTCCATCTTCGGAGTCACCTAGTGCAG | 8940 fluorescence intensity (a.u.)
TGTCCTGGGATGTTGGGAGTTATGCTTGCGTTAAATCTGACGGAGTCACCTAGTGCAG | 8810 fluorescence intensity (a.u.)
GCGCTCGACCACCCGCGCGCACCGGCGAAACATACGGCGCCGGAGTCACCTAGTGCAG | 9210 fluorescence intensity (a.u.)
GTTGTATTGATGATTCTTTCTCCCTTGATGTCGCTGAACTCGGAGTCACCTAGTGCAG | 9040 fluorescence intensity (a.u.)
TGAGGCCCTTAGCCTTATTATGGGATGGGGTGTCTAGATACGGAGTCACCTAGTGCAG | 8380 fluorescence intensity (a.u.)
GGATGCTTTTATCTGTGCACTAATGATTCATAGTTTCAATCGGAGTCACCTAGTGCAG | 9120 fluorescence intensity (a.u.)
TGCAATCTACCAATACTATTGTTCACTGTACCACCCTTATCGGAGTCACCTAGTGCAG | 9050 fluorescence intensity (a.u.)

Looked up one by one from the entries so far, 2 records:
Sequence | binding signal
CATTTTGCCGCCATTGACCTCGCCGTCGCCATGAACATCTCGGAGTCACCTAGTGCAG | 8490 fluorescence intensity (a.u.)
GTGTCTGAATTCTCGTCCACCTTTTGCAACAGGCAAGTATCGGAGTCACCTAGTGCAG | 8180 fluorescence intensity (a.u.)

Already shown: an excerpt of the list.
Sequence | binding signal
GCGGGCAGTGGGCGCGAGATCTCATCCGAGTGGGTGGGCGCGGAGTCACCTAGTGCAG | 8060 fluorescence intensity (a.u.)
AAAGCCACTCTTCTCCTTTGAACATTCTTCTCCTTTTCTTCGGAGTCACCTAGTGCAG | 8880 fluorescence intensity (a.u.)

Further entries follow.

Sequence | binding signal
ATTCATTCACTCGTCGACTTTTCGTCGTCCTCCGCGACGACGGAGTCACCTAGTGCAG | 11600 fluorescence intensity (a.u.)
CCACCGCCACCGCCGCGTCGTCCTCTTCCACCAACACCTCCGGAGTCACCTAGTGCAG | 12100 fluorescence intensity (a.u.)
CCTATAAATGTTTCTGTAGTTATCTAGATTAGAATTTTCTCGGAGTCACCTAGTGCAG | 8520 fluorescence intensity (a.u.)
GCTGGCTCGATAGCTCGCTATCTCACACTTCGTCGCCGGCCGGAGTCACCTAGTGCAG | 8550 fluorescence intensity (a.u.)
TGCACTTGATTAGTACAGGAGTTAACTGCATCTACGACTCCGGAGTCACCTAGTGCAG | 8600 fluorescence intensity (a.u.)
ATGCTCGCTGATCAGATGGTATGCCTACTCTTAACCACTACGGAGTCACCTAGTGCAG | 8020 fluorescence intensity (a.u.)
AATTACTTTAGCTTTGTTCTGCACTGTTCAAGTTTATTTGCGGAGTCACCTAGTGCAG | 10300 fluorescence intensity (a.u.)
CATCAACCATCTCCAATTTAAATTTCTCCCCATTCTACCTCGGAGTCACCTAGTGCAG | 8630 fluorescence intensity (a.u.)
CTTCTTCGCTCTCCACTCCGTCGTCCACCATGGCAACCTCCGGAGTCACCTAGTGCAG | 8890 fluorescence intensity (a.u.)
TTTCTCACATGTTTGACCATTCGTCTTATTCAAAAATTTTCGGAGTCACCTAGTGCAG | 12800 fluorescence intensity (a.u.)
GCTCCGTAGTTCCGACAGATTCCTCATCCTCTTTCCCTTTCGGAGTCACCTAGTGCAG | 11100 fluorescence intensity (a.u.)
GTCTCGCTTTCTCTCTCTAGGGTTTTTCCCCACTTTCGTTCGGAGTCACCTAGTGCAG | 13700 fluorescence intensity (a.u.)
TAGTGTTGACCCCGGTTTTATCCTACGTAGCGGCTGAGTCCGGAGTCACCTAGTGCAG | 9050 fluorescence intensity (a.u.)
TCCACCAATTCTCTCTTTCTCTCTCAATTAGTCTACGACACGGAGTCACCTAGTGCAG | 9020 fluorescence intensity (a.u.)
ACATCAGTTTGTTCGATATGGTTGTTAGTGTATTTTTTAACGGAGTCACCTAGTGCAG | 8740 fluorescence intensity (a.u.)
TGACCCACCACCTTCTGAAAGCTACACACCAAATTGCAAACGGAGTCACCTAGTGCAG | 8200 fluorescence intensity (a.u.)
GGTAAGTTTTCTCCCTTGCTACAATACTACTATTGCCTGTCGGAGTCACCTAGTGCAG | 8980 fluorescence intensity (a.u.)
TTTTATCCTACTCAAACTATCTTTTTTATTTCTCTAATTCCGGAGTCACCTAGTGCAG | 9440 fluorescence intensity (a.u.)
ATCTCTTGCTTTACCTCTTGACTCGCATTTACAGAGTACACGGAGTCACCTAGTGCAG | 8180 fluorescence intensity (a.u.)
TCGATTTGCTCGGAGGCGGAGAGGCCATGCATCCACGGAGCGGAGTCACCTAGTGCAG | 8030 fluorescence intensity (a.u.)
AGAGGGACAAGGGAGTTTGGGGTGTGTGTTTAGGTAATACCGGAGTCACCTAGTGCAG | 9270 fluorescence intensity (a.u.)
